Measured values taken from PubChem BioAssay AID248 (DTP/NCI, 2004).
The list shows only some results of the screen, not a fair sample: its compounds were picked by chemical class. Not every dose and run of a compound is shown. T/C gives the treated animals as a percentage of the vehicle group. Where survival is the endpoint, the PubChem record calls one and a half times the control and up active, and a quarter to a half above the control has no call in these data; cut-offs in other NCI protocols can differ. Some entries show no survivor count and are marked so; the dose need not have been tolerated. Schedule codes are those of the source, taken here to give the interval after Q, in days (D) or hours (H), and the number of doses after X. Some entries were tested several times; their values stand side by side, smallest first. Some schedules carry Z or #; the key to these is not given.

System: L1210 leukemia ip in BDF1 mice, survival T/C
Test: NCI In Vivo Anticancer Drug Screen. Data for tumor model L1210 Leukemia (intraperitoneal) in B6D2F1 (BDF1) mice
Details: T/C endpoint: mean survival time, higher T/C = longer survival

Structure (SMILES): CCCCCN(C)Cc1ncccc1OC(=O)N(C)C
- T/C (dose: 0.78 mg/kg/injection, schedule: Q04DX003 (ip), vehicle: saline with Tween-80): 98 % of control [survivor count not shown]
- T/C (dose: 1.56 mg/kg/injection, schedule: Q04DX003 (ip), vehicle: saline with Tween-80): 89 % of control [survivor count not shown]

Structure (SMILES): NN(CCCl)CCCl
- T/C (dose: 0.75 mg/kg/injection, schedule: Q01DX009 (ip), vehicle: saline): 106 % of control [survivor count not shown]
- T/C (dose: 1.5 mg/kg/injection, schedule: Q01DX009 (ip), vehicle: saline): 106 % of control [survivor count not shown]
- T/C (dose: 2.5 mg/kg/injection, schedule: Q01DX009 (ip), vehicle: saline): 126 % of control [survivor count not shown]
- T/C (dose: 3.0 mg/kg/injection, schedule: Q01DX009 (ip), vehicle: saline): 102 % of control [survivor count not shown]
- T/C (dose: 3.8 mg/kg/injection, schedule: Q01DX009 (ip), vehicle: saline): 134 % of control [survivor count not shown]
- T/C (dose: 5.8 mg/kg/injection, schedule: Q01DX009 (ip), vehicle: saline): 131 [survivor count not shown] and 158 % of control [survivor count not shown]
- T/C (dose: 5.91 mg/kg/injection, schedule: Q01DX009 (ip), vehicle: saline): 140 % of control [survivor count not shown]
- T/C (dose: 6.0 mg/kg/injection, schedule: Q01DX009 (ip), vehicle: saline): 130 % of control [survivor count not shown]
- T/C (dose: 8.8 mg/kg/injection, schedule: Q01DX009 (ip), vehicle: saline): 156 % of control [survivor count not shown]
- T/C (dose: 10.0 mg/kg/injection, schedule: Q01DX001 (ip), vehicle: saline): 117 % of control [survivor count not shown]
- T/C (dose: 10.13 mg/kg/injection, schedule: Q01DX009 (ip), vehicle: saline): 141 % of control [survivor count not shown]
- T/C (dose: 13.3 mg/kg/injection, schedule: Q01DX009 (ip), vehicle: saline): 129 % of control [survivor count not shown]
- T/C (dose: 16.6 mg/kg/injection, schedule: Q01DX001 (ip), vehicle: saline): 139 [survivor count not shown] and 144 % of control [survivor count not shown]
- T/C (dose: 16.65 mg/kg/injection, schedule: Q01DX001 (ip), vehicle: saline): 141 % of control [survivor count not shown]
- T/C (dose: 16.88 mg/kg/injection, schedule: Q01DX009 (ip), vehicle: saline): 100 % of control [survivor count not shown]
- T/C (dose: 18.75 mg/kg/injection, schedule: Q01DX001 (ip), vehicle: saline): 152 % of control [survivor count not shown]
- T/C (dose: 25.0 mg/kg/injection, schedule: Q01DX001 (ip), vehicle: saline): 138 [survivor count not shown] and 152 % of control [survivor count not shown]
- T/C (dose: 37.5 mg/kg/injection, schedule: Q01DX001 (ip), vehicle: saline): 106 [survivor count not shown], 111 [survivor count not shown], 155 % of control [survivor count not shown]
- T/C (dose: 56.25 mg/kg/injection, schedule: Q01DX001 (ip), vehicle: saline): 143 % of control [survivor count not shown]

Structure (SMILES): CC(Cl)CN(CCCl)P1(=O)NCCCO1 (stereo unspecified)
- T/C (dose: 11.0 mg/kg/injection, schedule: Q01DX Z (ip), vehicle: methylcellulose (MC)): 92 % of control [survivor count not shown]
- T/C (dose: 22.0 mg/kg/injection, schedule: Q01DX Z (ip), vehicle: methylcellulose (MC)): 105 % of control [survivor count not shown]
- T/C (dose: 44.0 mg/kg/injection, schedule: Q01DX Z (ip), vehicle: methylcellulose (MC)): 112 % of control [survivor count not shown]
- T/C (dose: 88.0 mg/kg/injection, schedule: Q01DX Z (ip), vehicle: methylcellulose (MC)): 128 % of control [survivor count not shown]
- T/C (dose: 100.0 mg/kg/injection, schedule: Q01DX Z (ip), vehicle: methylcellulose (MC)): 119 % of control [survivor count not shown]
- T/C (dose: 200.0 mg/kg/injection, schedule: Q01DX Z (ip), vehicle: methylcellulose (MC)): 90 % of control [survivor count not shown]

Structure (SMILES): ClCCN(CCCl)Cc1nc2cc(Cl)c(Cl)cc2[nH]1
- T/C (dose: 49.0 mg/kg/injection, schedule: Q01DX Z (ip), vehicle: carboxymethylcellulose (CMC)): 103 % of control [survivor count not shown]
- T/C (dose: 50.0 mg/kg/injection, schedule: Q01DX001 (ip), vehicle: saline): 102 % of control [survivor count not shown]
- T/C (dose: 73.0 mg/kg/injection, schedule: Q01DX Z (ip), vehicle: carboxymethylcellulose (CMC)): 100 % of control [survivor count not shown]
- T/C (dose: 100.0 mg/kg/injection, schedule: Q01DX001 (ip), vehicle: saline): 107 % of control [survivor count not shown]
- T/C (dose: 200.0 mg/kg/injection, schedule: Q01DX001 (ip), vehicle: saline): 116 % of control [survivor count not shown]

Structure (SMILES): ClCCNC(CCl)CCl
- T/C (dose: 12.5 mg/kg/injection, schedule: Q01DX Z (ip), vehicle: other): 96 % of control [survivor count not shown]
- T/C (dose: 18.7 mg/kg/injection, schedule: Q01DX Z (ip), vehicle: saline): 129 % of control [survivor count not shown]
- T/C (dose: 25.0 mg/kg/injection, schedule: Q01DX Z (ip), vehicle: other): 92 % of control [survivor count not shown]
- T/C (dose: 37.5 mg/kg/injection, schedule: Q01DX Z (ip), vehicle: saline): 113 % of control [survivor count not shown]
- T/C (dose: 50.0 mg/kg/injection, schedule: Q01DX Z (ip), vehicle: other): 112 % of control [survivor count not shown]
- T/C (dose: 75.0 mg/kg/injection, schedule: Q01DX Z (ip), vehicle: saline): 124 % of control [survivor count not shown]
- T/C (dose: 100.0 mg/kg/injection, schedule: Q01DX Z (ip), vehicle: other): 139 % of control [survivor count not shown]
- T/C (dose: 100.0 mg/kg/injection, schedule: Q01DX Z (ip), vehicle: saline): 102 % of control [survivor count not shown]
- T/C (dose: 150.0 mg/kg/injection, schedule: Q01DX Z (ip), vehicle: saline): 128 % of control [survivor count not shown]
- T/C (dose: 176.0 mg/kg/injection, schedule: Q01DX001 (ip), vehicle: saline): 102 % of control [survivor count not shown]
- T/C (dose: 264.0 mg/kg/injection, schedule: Q01DX001 (ip), vehicle: saline): 104 % of control [survivor count not shown]

Structure (SMILES): CCOC(=O)c1ccc(N(CCCl)CCCl)cc1
- T/C (dose: 100.0 mg/kg/injection, schedule: Q01DX001 (ip), vehicle: carboxymethylcellulose (CMC)): 103 % of control [survivor count not shown]
- T/C (dose: 200.0 mg/kg/injection, schedule: Q01DX001 (ip), vehicle: carboxymethylcellulose (CMC)): 102 % of control [survivor count not shown]
- T/C (dose: 400.0 mg/kg/injection, schedule: Q01DX001 (ip), vehicle: carboxymethylcellulose (CMC)): 105 % of control [survivor count not shown]
